The other results are listed elsewhere or left out.
Experiments:
Experiment in all cases: log2 fold change, soluble protein after heating vs DMSO (PISA); higher = thermal stabilisation; K562 lysate, 10 uM; active = over 0.2 and 3.5 SD of the protein, either way, in both replicates (recomputed)
[1] = compound: C1=CC=C(C=C1)[C@H](COC2=CC3=C(C=C2)NC(=O)N3)NC(=O)C4=CC=CN(C4=O)CC5=CC(=C(C=C5)F)F
How it was run: (§1)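 A 30 min treatment with 10 μM compound was applied to crude K562 extract at 1 mg/mL protein in PBS pH 7.4 with 1 mM MgCl2. Heating for 3 min spanned 48°C-58°C, after which aliquots were pooled, adjusted to 0.5% NP-40 at 4°C and spun at 21,000xg for 90 min. TMTpro 16plex LC-MS/MS of the supernatant, with channel sums equalised, gave values recorded as log-two fold change in thermal stability against solvent controls, from duplicates.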

By UniProt entry, the sequences of proteins in these tests, tags left out. Where a name states a change or a piece, a line headed by the entry shows the natural chain unless it says otherwise.
UniProt P42357: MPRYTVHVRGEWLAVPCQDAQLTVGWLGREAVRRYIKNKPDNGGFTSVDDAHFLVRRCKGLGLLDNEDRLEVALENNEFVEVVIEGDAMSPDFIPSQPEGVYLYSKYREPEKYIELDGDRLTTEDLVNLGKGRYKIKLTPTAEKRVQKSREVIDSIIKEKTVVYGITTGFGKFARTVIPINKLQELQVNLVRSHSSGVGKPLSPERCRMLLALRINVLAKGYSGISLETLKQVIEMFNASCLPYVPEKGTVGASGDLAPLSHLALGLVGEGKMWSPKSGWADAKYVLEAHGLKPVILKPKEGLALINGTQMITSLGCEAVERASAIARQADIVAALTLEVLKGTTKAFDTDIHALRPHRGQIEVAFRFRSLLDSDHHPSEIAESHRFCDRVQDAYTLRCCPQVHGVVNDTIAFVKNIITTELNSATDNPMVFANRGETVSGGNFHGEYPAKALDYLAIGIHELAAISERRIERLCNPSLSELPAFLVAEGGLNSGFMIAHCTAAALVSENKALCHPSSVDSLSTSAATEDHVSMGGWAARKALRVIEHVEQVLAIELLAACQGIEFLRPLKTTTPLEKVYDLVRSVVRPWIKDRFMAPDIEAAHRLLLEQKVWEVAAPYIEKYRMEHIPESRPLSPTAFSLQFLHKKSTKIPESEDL
UniProt P15170, whole entry, looked up: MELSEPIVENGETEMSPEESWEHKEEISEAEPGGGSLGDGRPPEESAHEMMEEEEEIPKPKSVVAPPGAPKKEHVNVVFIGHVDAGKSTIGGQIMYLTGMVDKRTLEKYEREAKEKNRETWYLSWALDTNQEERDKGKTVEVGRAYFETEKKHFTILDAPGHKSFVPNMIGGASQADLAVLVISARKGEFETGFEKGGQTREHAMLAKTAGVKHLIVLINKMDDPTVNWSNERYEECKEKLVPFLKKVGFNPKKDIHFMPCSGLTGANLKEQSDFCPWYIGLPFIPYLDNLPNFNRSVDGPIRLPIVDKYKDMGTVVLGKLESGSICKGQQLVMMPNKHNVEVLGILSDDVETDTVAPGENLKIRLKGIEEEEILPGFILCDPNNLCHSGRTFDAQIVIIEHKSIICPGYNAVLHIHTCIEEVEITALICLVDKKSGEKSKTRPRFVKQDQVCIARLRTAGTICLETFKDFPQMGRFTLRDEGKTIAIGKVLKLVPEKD
UniProt O43824: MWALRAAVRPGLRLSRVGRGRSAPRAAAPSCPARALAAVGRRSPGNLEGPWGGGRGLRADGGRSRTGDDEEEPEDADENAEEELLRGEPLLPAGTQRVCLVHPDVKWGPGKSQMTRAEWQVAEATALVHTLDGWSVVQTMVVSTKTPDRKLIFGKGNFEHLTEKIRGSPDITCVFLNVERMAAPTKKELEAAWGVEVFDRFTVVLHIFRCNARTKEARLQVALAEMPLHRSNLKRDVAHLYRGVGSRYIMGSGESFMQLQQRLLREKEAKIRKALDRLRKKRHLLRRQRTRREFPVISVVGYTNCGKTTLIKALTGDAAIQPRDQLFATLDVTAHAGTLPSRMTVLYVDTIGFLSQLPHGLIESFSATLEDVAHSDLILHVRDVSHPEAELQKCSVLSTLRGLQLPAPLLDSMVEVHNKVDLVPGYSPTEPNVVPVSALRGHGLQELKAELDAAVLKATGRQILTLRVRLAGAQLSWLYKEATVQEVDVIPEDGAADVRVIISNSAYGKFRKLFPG
UniProt P12081: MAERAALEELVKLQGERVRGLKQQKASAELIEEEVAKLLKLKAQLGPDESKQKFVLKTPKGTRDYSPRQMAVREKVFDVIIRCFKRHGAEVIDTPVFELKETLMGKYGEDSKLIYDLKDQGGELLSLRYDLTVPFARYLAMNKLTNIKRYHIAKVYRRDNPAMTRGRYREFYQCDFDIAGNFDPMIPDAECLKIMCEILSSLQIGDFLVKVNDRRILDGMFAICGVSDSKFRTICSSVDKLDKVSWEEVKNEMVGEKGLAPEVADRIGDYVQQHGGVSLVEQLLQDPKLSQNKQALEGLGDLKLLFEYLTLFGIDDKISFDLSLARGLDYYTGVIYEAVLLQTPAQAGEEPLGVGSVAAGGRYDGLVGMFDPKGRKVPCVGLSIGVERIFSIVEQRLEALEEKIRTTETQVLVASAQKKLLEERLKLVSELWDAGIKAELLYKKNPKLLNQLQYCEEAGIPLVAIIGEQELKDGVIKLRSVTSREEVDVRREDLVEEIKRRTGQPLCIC
UniProt P32780: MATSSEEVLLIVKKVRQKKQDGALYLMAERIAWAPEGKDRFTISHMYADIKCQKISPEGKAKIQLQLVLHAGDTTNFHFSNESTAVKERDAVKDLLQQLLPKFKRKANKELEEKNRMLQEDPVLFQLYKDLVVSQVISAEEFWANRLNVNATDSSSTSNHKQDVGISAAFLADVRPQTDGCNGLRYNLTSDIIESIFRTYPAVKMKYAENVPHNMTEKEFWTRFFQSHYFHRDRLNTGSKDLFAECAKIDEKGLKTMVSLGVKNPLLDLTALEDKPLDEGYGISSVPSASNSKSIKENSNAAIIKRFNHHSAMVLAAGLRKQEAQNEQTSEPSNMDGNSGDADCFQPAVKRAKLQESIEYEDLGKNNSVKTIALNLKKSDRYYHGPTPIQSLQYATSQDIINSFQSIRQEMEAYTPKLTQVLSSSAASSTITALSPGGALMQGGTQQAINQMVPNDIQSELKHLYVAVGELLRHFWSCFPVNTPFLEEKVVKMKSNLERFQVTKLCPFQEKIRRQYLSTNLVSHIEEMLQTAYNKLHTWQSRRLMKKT
UniProt P51610: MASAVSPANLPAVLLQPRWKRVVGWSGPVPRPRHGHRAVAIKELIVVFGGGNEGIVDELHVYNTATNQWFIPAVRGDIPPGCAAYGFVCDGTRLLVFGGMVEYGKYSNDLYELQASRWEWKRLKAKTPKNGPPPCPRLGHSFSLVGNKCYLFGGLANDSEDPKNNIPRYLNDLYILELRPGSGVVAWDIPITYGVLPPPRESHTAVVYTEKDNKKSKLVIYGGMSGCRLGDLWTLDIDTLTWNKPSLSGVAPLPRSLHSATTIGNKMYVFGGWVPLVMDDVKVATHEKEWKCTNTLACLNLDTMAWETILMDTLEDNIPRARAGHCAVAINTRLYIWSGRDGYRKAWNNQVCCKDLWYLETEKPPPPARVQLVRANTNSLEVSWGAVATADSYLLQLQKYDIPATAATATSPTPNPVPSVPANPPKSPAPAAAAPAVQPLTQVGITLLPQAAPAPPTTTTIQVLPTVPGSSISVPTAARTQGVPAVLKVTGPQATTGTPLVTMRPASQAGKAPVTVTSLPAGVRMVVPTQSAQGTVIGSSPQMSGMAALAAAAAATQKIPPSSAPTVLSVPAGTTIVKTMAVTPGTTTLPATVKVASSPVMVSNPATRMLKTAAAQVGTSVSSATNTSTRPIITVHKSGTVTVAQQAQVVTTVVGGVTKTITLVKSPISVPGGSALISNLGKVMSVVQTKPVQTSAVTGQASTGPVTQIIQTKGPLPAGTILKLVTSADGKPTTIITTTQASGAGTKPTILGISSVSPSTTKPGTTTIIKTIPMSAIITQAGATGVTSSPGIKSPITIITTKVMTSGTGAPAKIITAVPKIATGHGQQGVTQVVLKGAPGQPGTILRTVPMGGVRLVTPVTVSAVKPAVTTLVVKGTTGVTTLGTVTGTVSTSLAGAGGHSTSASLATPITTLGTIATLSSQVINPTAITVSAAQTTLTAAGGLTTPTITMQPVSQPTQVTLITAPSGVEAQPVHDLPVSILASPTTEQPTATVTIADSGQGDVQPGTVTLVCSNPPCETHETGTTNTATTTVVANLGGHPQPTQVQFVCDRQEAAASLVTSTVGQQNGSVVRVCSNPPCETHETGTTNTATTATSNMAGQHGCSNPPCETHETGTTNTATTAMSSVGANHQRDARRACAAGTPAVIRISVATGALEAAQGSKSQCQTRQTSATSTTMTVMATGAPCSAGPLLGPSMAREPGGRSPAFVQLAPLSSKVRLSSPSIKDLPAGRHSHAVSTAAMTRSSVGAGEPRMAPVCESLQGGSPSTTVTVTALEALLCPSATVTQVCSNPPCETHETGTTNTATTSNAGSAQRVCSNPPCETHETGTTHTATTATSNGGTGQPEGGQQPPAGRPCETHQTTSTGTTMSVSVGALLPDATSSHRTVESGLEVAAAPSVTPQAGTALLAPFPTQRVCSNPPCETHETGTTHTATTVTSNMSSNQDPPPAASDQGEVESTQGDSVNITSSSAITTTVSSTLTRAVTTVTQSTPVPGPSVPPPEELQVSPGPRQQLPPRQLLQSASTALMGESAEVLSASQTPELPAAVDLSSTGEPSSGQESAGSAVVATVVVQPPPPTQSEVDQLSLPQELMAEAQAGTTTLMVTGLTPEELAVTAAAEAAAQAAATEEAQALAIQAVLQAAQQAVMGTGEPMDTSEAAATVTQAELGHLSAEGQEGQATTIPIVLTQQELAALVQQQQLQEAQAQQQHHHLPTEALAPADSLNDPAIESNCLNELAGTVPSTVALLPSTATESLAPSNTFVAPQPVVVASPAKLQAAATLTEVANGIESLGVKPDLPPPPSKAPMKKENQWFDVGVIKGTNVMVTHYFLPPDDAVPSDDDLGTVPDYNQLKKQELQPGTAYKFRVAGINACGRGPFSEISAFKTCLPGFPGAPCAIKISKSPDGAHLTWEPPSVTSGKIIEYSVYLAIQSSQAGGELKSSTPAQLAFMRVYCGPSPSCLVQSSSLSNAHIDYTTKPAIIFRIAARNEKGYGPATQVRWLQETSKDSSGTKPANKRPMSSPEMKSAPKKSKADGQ
UniProt Q96NT3: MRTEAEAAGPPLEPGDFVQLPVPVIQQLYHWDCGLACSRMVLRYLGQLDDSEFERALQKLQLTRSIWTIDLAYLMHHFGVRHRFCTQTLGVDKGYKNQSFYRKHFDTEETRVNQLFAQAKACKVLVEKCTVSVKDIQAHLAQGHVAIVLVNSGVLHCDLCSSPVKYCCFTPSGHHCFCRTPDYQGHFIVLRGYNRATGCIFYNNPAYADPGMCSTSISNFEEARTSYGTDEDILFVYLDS
UniProt O95479: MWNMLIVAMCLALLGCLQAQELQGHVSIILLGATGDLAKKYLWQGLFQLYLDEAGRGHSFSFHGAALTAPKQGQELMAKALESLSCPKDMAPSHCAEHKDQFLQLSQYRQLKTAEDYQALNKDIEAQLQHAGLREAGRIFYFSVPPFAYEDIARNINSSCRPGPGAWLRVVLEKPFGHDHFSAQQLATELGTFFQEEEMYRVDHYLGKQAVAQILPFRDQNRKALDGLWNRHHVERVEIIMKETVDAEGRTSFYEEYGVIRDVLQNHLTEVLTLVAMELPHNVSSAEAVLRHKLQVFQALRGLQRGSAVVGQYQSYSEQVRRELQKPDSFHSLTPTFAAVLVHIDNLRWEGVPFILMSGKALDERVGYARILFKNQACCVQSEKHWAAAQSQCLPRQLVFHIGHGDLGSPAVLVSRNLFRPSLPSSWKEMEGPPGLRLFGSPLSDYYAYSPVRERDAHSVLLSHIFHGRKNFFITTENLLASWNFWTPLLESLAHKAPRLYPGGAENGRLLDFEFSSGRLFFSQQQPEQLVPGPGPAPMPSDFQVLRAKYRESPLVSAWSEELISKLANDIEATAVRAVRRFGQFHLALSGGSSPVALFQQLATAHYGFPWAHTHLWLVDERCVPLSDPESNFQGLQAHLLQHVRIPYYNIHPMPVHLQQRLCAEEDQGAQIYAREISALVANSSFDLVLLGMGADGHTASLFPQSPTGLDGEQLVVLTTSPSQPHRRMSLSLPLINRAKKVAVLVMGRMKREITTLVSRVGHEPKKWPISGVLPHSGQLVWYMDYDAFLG
UniProt Q9Y4H4: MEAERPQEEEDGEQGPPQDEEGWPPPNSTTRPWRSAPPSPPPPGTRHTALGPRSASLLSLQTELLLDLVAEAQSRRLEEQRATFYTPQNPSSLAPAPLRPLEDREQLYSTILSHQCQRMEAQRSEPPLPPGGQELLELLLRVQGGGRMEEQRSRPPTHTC
UniProt P69891: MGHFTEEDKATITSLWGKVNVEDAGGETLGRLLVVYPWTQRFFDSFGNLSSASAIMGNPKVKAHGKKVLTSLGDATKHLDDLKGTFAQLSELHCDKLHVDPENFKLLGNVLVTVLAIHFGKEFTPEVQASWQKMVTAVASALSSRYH
UniProt P49840: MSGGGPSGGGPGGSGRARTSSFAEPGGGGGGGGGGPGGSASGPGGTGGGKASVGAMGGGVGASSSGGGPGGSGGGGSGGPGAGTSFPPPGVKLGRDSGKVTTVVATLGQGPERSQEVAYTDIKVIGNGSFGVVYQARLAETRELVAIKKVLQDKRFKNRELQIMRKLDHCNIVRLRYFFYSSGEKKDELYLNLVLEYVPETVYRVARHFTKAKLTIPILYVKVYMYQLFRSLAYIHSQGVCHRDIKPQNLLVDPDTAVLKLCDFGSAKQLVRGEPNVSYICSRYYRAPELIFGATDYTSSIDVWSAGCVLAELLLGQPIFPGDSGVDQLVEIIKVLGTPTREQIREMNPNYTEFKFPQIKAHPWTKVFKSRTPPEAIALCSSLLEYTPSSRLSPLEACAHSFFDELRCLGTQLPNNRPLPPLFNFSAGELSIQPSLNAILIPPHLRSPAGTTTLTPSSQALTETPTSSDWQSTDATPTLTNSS

[2] = compound: CC1=C(SC2=C1C(=N[C@H](C3=NN=C(N32)C)CC(=O)N)C4=CC=C(C=C4)Cl)C
How it was run: as §1

[3] = compound: Cc1sc2c(c1C)C(c1ccc(Cl)cc1)=N[C@@H](CC(=O)OC(C)(C)C)c1nnc(C)n1-2
How it was run: as §1

[4] = compound: c1ccc([C@@H]2C[C@H]2NC2CCNCC2)cc1
How it was run: as §1

[5] = compound: CC1=C2C(=CC=C1)N=C(N(C2=O)C3=CC=CC=C3C)CN4C=NC5=C(N=CN=C54)N
How it was run: as §1

Measured: log2 fold change

GSDME (UniProt O60443)
inactive: [1] 0.028 | [2] -0.024 | [3] 0.024 | [4] 0.066

HAL (UniProt P42357)
inactive: [3] 0.033 | [4] 0.011

HACE1 (UniProt Q8IYU2)
inactive: [1] -0.03 | [2] 0.08 | [5] 0.07 | [3] -0.115 | [4] -0.377

GSPT1 isoform 2 (UniProt P15170)
inactive: [5] -0.217

HBD (UniProt E9PEW8)
inactive: [5] -0.012 | [4] 0.079

GRK5 (UniProt P34947)
inactive: [5] -0.063

H1-0 (UniProt P07305)
inactive: [3] 0.114

GTPBP6 (UniProt O43824)
inactive: [5] 0.385 | [3] -0.439 | [4] 0.118

GRN (UniProt P28799)
inactive: [3] 0.11 | [4] 0.075

GRM5 (UniProt P41594)
inactive: [1] -0.131 | [2] -0.022 | [3] 0.013

H3-3A (UniProt P84243)
inactive: [1] 0.059 | [2] 0.016 | [5] 0.024 | [4] -0.004

GPT2 (UniProt Q8TD30)
inactive: [5] -0.039 | [3] 0.079

H3-2 (UniProt Q5TEC6)
inactive: [1] 0.095 | [2] -0.134 | [3] 0.148

HDDC3 (UniProt Q8N4P3)
inactive: [1] -0.024 | [2] -0.017 | [5] -0.055 | [3] -0.089 | [4] 0.037

HCCS (UniProt P53701)
inactive: [1] 0.011 | [2] -0.005 | [5] -0.01 | [3] -0.006 | [4] -0.053

GTF3A (UniProt Q92664)
inactive: [1] 0.006 | [2] 0.017 | [5] -0.019 | [3] 0.096 | [4] 0.042

HBZ, A0A494C057
inactive: [1] -0.016 | [2] 0.067 | [5] 0.002 | [4] 0.146

HDAC5 isoform 3 (UniProt Q9UQL6)
inactive: [1] 0.037 | [2] 0.011 | [5] -0.028 | [3] -0.039 | [4] 0.01

GYPA, A0A2R8Y7F9
inactive: [1] -0.088 | [2] -0.151 | [4] -0.163

GREB1 (UniProt Q4ZG55)
inactive: [1] 0.072 | [2] 0.047 | [5] 0.154 | [4] -0.185

HARS (UniProt P12081)
inactive: [1] 0.025 | [2] 0.006 | [5] 0.001 | [3] 0.008 | [4] 0.002

GTF2H1 (UniProt P32780)
inactive: [1] 0.006 | [2] -0.035 | [5] 0.089 | [3] 0.025 | [4] 0.006

HCFC1 (UniProt P51610)
inactive: [1] 0.042 | [2] -0.026 | [5] 0.126 | [4] -0.207

HACL1 (UniProt Q9UJ83)
inactive: [1] 0.02 | [2] 0.008 | [5] -0.025 | [3] -0.042 | [4] -0.017

GUCD1 isoform 3 (UniProt Q96NT3)
inactive: [3] 0.05

H6PD (UniProt O95479)
inactive: [1] 0.092 | [2] 0.089 | [3] 0.035 | [4] 0.017

GRHPR (UniProt Q9UBQ7)
inactive: [1] -0.002 | [2] 0.03 | [5] 0.018 | [3] -0.016 | [4] 0.121

GPSM3 (UniProt Q9Y4H4)
inactive: [3] -0.03 | [4] -0.199

GRAMD4 (UniProt Q6IC98)
inactive: [5] 0.106 | [3] -0.067

GTF2I (UniProt P78347)
inactive: [1] -0.026 | [2] 0 | [5] 0.009 | [3] 0.015 | [4] 0.061

HBG1 (UniProt P69891)
inactive: [1] 0.005 | [2] -0.064 | [5] -0.013 | [3] -0.006 | [4] 0.035

GSK3A (UniProt P49840)
inactive: [1] -0.041 | [2] 0.03 | [5] -0.059 | [3] 0.036 | [4] -0.044

Seven successive records out of the list so far:
HCFC1 (UniProt P51610)
inactive: [1] 0.042 | [2] -0.026 | [5] 0.126 | [4] -0.207

HACL1 (UniProt Q9UJ83)
inactive: [1] 0.02 | [2] 0.008 | [5] -0.025 | [3] -0.042 | [4] -0.017

GUCD1 isoform 3 (UniProt Q96NT3)
inactive: [3] 0.05

H6PD (UniProt O95479)
inactive: [1] 0.092 | [2] 0.089 | [3] 0.035 | [4] 0.017

GRHPR (UniProt Q9UBQ7)
inactive: [1] -0.002 | [2] 0.03 | [5] 0.018 | [3] -0.016 | [4] 0.121

GPSM3 (UniProt Q9Y4H4)
inactive: [3] -0.03 | [4] -0.199

GRAMD4 (UniProt Q6IC98)
inactive: [5] 0.106 | [3] -0.067
